Data from patent US7094869B2 (Genentech, Inc., priority 1994, dated 2006).

Experiments:
[1] = Fmoc solid-phase peptide synthesis; MBHA-resin (BOC); FMOC-Am-resin (FMOC); hydroxymethyl resin / diamine-carbonylbenzyloxy-resin; BOP/HOBt/NMM; BOP-Cl/DIPEA; HBTU/DIPEA; details: whole synthesis, TFA salt
[2] = solid-phase peptide synthesis; details: whole synthesis, TFA salt
[3] = Boc solid-phase peptide synthesis; MBHA-resin; BOP/HOBt/NMM; BOP-Cl/DIPEA; HBTU/DIPEA; details: whole synthesis, TFA salt
[4] = Fmoc solid-phase peptide synthesis; Am-resin; BOP/HOBt/NMM; BOP-Cl/DIPEA; HBTU/DIPEA; details: whole synthesis, scale approx. 0.25 mmol, TFA salt

[4-(N-methylamino)butanoyl]-DβNal-DβNal-Phe-Lys-amide
crude mass ([1]; scale 0.17 mmol): 120 mg

(inip)-(N-Me-DβNal)-DTrp-Phe-Lys-amide
crude mass ([1]; scale approx. 0.4 mmol): 75 mg | isolated mass ([1]; scale approx. 0.4 mmol): 11 mg

(inip)-DβNal-DβNal-Phe
crude purity (method not given) [2]: approximately 90%

(inip)-DβNal-DβNal-Phe-amide
crude mass ([3]; scale 2.28 mmol): 560 mg | isolated mass ([3]; scale 2.28 mmol): 436 mg

(4-aminobutanoyl)-DβNal-DβNal-Phe-Lys-amide
crude mass ([1]; scale 0.32 mmol): 245 mg

(5-aminovaleryl)-(N-Me-DβNal)-DβNal-Phe-Lys-amide
crude mass ([3]; scale 0.33 mmol): 193 mg

(inip)-DβNal-(N-Me-DβNal)-Phe-Lys-amide
crude mass ([3]; scale approx. 0.30 mmol): 200 mg

(5-Aminovaleryl)-DPhe-βNal-βNal-Lys-amide
crude mass [4]: 100 mg

(inip)-(N-Me-DβNal)-DβNal-Phe-Lys-amide
crude mass ([3]; scale approx. 0.3 mmol): 250 mg

(inip)-DβNal-(D-Trp)-Phe-amide
crude mass ([3]; scale approx. 1.14 mmol): 240 mg
